{"source": "PubChem BioAssay AID1259405 (NCATS, 2018)", "assay": "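Knock-downs that lift recombinant protein yield in hamster ovary cells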 (primary screen)", "system": "Chinese hamster CHO-K1 ovary cells with stable secreted eGFP expression", "reagents": "single siRNA against mouse genes, 0.8 pmol siRNA per well (2 µl of 400 nM stock)", "timing": "3 days", "measured": "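Per-well intracellular GFP measured by laser scanning cytometry, plus viability from ATP luminescence, each relative to plate median of non-targeting control wells, in %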", "reading the numbers": "GFP, % of control: higher = more GFP per well, higher productivity; viability (ATP), % of control: higher = more viable cells (more ATP)", "rule for the call": "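Called active when intracellular GFP, relative to negative control, is at or above 120%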", "note": "The whole screen tested about 50,000 reagents; shown is an unselected part. About 4,000 of all reagents (8%) were called active. 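Mouse siRNA library applied to hamster cells; one well for each siRNA.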 Unmarked entries are inactive. The numbers tell different reagents against one gene apart."}
{"target": "Zfp82", "reagent": 1, "GFP, % of control": 49, "viability (ATP), % of control": 60.8}
{"target": "Zfp82", "reagent": 2, "GFP, % of control": 70.6, "viability (ATP), % of control": 73.2}
{"target": "Zfp82", "reagent": 3, "GFP, % of control": 93.2, "viability (ATP), % of control": 93.2}
{"target": "Nt5c", "reagent": 1, "GFP, % of control": 61.5, "viability (ATP), % of control": 74.4}
{"target": "Nt5c", "reagent": 2, "GFP, % of control": 61.7, "viability (ATP), % of control": 60.4}
{"target": "Nt5c", "reagent": 3, "GFP, % of control": 52.4, "viability (ATP), % of control": 64.1}
{"target": "Wdr83os", "reagent": 1, "GFP, % of control": 71.1, "viability (ATP), % of control": 78.4}
{"target": "Wdr83os", "reagent": 2, "GFP, % of control": 71.3, "viability (ATP), % of control": 91.3}
{"target": "Wdr83os", "reagent": 3, "GFP, % of control": 88.1, "viability (ATP), % of control": 109}
{"target": "Gpr149", "reagent": 1, "GFP, % of control": "142 (active)", "viability (ATP), % of control": 54.6}
{"target": "Gpr149", "reagent": 2, "GFP, % of control": 76.9, "viability (ATP), % of control": 71.1}
{"target": "Gpr149", "reagent": 3, "GFP, % of control": 73.7, "viability (ATP), % of control": 86.4}
{"target": "Cryaa", "reagent": 1, "GFP, % of control": 87.3, "viability (ATP), % of control": 86.3}
{"target": "Cryaa", "reagent": 2, "GFP, % of control": 104, "viability (ATP), % of control": 88}
{"target": "Plekhg5", "reagent": 1, "GFP, % of control": 71.9, "viability (ATP), % of control": 57.7}
{"target": "Plekhg5", "reagent": 2, "GFP, % of control": 89.8, "viability (ATP), % of control": 81.7}
{"target": "Plekhg5", "reagent": 3, "GFP, % of control": 95.8, "viability (ATP), % of control": 72.1}
{"target": "Actn4", "reagent": 1, "GFP, % of control": "128 (active)", "viability (ATP), % of control": 82.7}
{"target": "Actn4", "reagent": 2, "GFP, % of control": 77.4, "viability (ATP), % of control": 93.2}
{"target": "Sgms2", "reagent": 1, "GFP, % of control": 59.9, "viability (ATP), % of control": 56.6}
{"target": "Sgms2", "reagent": 2, "GFP, % of control": 96.5, "viability (ATP), % of control": 71.1}
{"target": "Sgms2", "reagent": 3, "GFP, % of control": 93.5, "viability (ATP), % of control": 72.6}
{"target": "Ngef", "reagent": 1, "GFP, % of control": 57.4, "viability (ATP), % of control": 54.8}
{"target": "Ngef", "reagent": 2, "GFP, % of control": 92.6, "viability (ATP), % of control": 80.4}
{"target": "Ngef", "reagent": 3, "GFP, % of control": "149 (active)", "viability (ATP), % of control": 57.5}
{"target": "H2-Q7", "reagent": 1, "GFP, % of control": 109, "viability (ATP), % of control": 89}
{"target": "H2-Q7", "reagent": 2, "GFP, % of control": 109, "viability (ATP), % of control": 89.3}
{"target": "H2-Q7", "reagent": 3, "GFP, % of control": 92.7, "viability (ATP), % of control": 74.6}

Reprinted from the entries so far for reference:
{"target": "H2-Q7", "reagent": 1, "GFP, % of control": 109, "viability (ATP), % of control": 89}
{"target": "H2-Q7", "reagent": 2, "GFP, % of control": 109, "viability (ATP), % of control": 89.3}
{"target": "H2-Q7", "reagent": 3, "GFP, % of control": 92.7, "viability (ATP), % of control": 74.6}
